Source: PubChem BioAssay AID1259424 (University of Nebraska Medical Center, 2018)

Test: 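Find knockdowns that reproduce the expression shifts seen after KSR1 loss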 (primary screen)
Cell system: human HCT116 colon cancer cells
Knock-down reagent: siRNA pool against human genes, 50 nM
Measurement: 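Log2 levels of six mRNAs (branched-DNA multiplex), adjusted by two reference genes and the non-targeting median, then scored against the average KSR1 knockdown pattern as Pearson r and euclidean distance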
Direction: mean correlation with KSR1 profile: higher = expression change more like KSR1 knockdown
The deposit covers about 14,000 reagents; this is an unselected part. 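Higher correlation or smaller distance means closer resemblance to KSR1 loss; control wells, including KSR1 knockdowns, recur on many plates.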 Not all columns of the deposit are shown. No sequences are given here. Not stated in the record: the time to read-out.

gene knocked down | mean correlation with KSR1 profile
ADGRE1 (GeneID 2015) | 0.812
RRAGB (GeneID 10325) | -0.395
KDM4A (GeneID 9682) | -0.417
ATAT1 (GeneID 79969) | 0.379
MORC3 (GeneID 23515) | -0.484
RHOBTB3 (GeneID 22836) | 0.0631
AK8 (GeneID 158067) | 0.0432
FBXO5 (GeneID 26271) | 0.485
ACBD5 (GeneID 91452) | 0.0447
HTR2A (GeneID 3356) | 0.388
ZDHHC1 (GeneID 29800) | -0.446
DPM2 (GeneID 8818) | 0.232
MDN1 (GeneID 23195) | -0.214
GPR78 (GeneID 27201) | 0.231
SPZ1 (GeneID 84654) | 0.393
MYOF (GeneID 26509) | 0
SURF6 (GeneID 6838) | -0.0048
LDLRAP1 (GeneID 26119) | 0.53
CH25H (GeneID 9023) | -0.133
ZFP36L1 (GeneID 677) | -0.371
CEACAM5 (GeneID 1048) | -0.219
FAM234B (GeneID 57613) | -0.518
NUCLEOLIN (GeneID 4691) | -0.728
CBR1 (GeneID 873) | -0.0925
SCT (GeneID 6343) | 0.23
ZCCHC8 (GeneID 55596) | -0.334
MFN2 (GeneID 9927) | 0.0138
ZSWIM8 (GeneID 23053) | 0.169
GAGE1 (GeneID 2543) | -0.341
MOS (GeneID 4342) | -0.138
RAB3D (GeneID 9545) | -0.294
ADCY6 (GeneID 112) | -0.625
PHF10 (GeneID 55274) | -0.123
GPBAR1 (GeneID 151306) | 0.154
